{"source": "PubChem BioAssay AID1347075", "about": "(National Center for Advancing Translational Sciences (NCATS), 2019)", "note": "Out of some 400,000 compounds screened, about 5,500 (1.4%) were called active. This list was built around the results that the source calls inconclusive (neither active nor inactive); the mix of calls is not that of the screen. The call rests on the fitted dose curve; in most records, active means well fitted cell-killing curve with a large enough effect; inconclusive means small, poorly fitted or top-dose-only effect, or effect the other way; inactive means flat fitted curve, though single readings scatter. Potencies beside an inconclusive call are fits to weak or partial responses and may not hold up. On the % scale 0 is the no-effect control and ±100 the full control effect; potency means the concentration at half of the fitted maximal effect."}
{"experiment": "qHTS assay for MDR1-selective chemotherapeutics: Primary screen using the parental adenocarcinoma cell KB-3-1; further: nearly all actives have a fitted effect of over 60% in size", "settings": "KB-3-1 viability, CellTiter-Glo ATP luminescence, 72 h; activity change, negative = cytotoxic: at 46.1 µM (top of the series)", "procedure,_shortened": "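Screening of KB-3-1 cells (DMEM, 10% FBS, phenol-red free) ran from lowest to highest compound concentration; after 72 h at 37 °C viability was read luminescently and curves fitted.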"}
{"smiles": "COc1ccccc1N=NC1C(=O)N(C(N)=S)N=C1C", "note": "(stereo not given)", "Potency": "inconclusive: 32.6 µM [cytotoxic, single point]"}
{"smiles": "COC(=O)/C=C/c1ccc2c(c1)S(=O)(=O)N(c1cccc(OC)c1)[C@H]2CC(=O)OC", "Potency": "inactive"}
{"smiles": "Cc1onc(-c2ccccc2)c1C(=O)NC(=S)Nc1sc2c(c1C#N)CCCC2", "Potency": "inactive"}
{"smiles": "Cc1cc(/C=C2\\C(=N)N3N=C(c4ccco4)SC3=NC2=O)c(C)n1Cc1ccccc1", "Potency": "inconclusive: 3.66 µM [rising, partial curve, poor fit]"}
{"smiles": "Cc1ccc(C(=O)NC(=S)Nc2nc(-c3cccc([N+](=O)[O-])c3)cs2)c(Cl)c1", "Potency": "inactive"}
{"smiles": "COc1ccc(/C=N/OCC(=O)NC(c2ccccc2)c2ccccc2)cc1OC", "Potency": "inconclusive: 13 µM [cytotoxic, partial curve, poor fit]"}
{"smiles": "Cn1c(=N)n(CC(=O)c2ccc(Br)cc2)c2ccccc21", "Potency": "inconclusive: 23.1 µM [cytotoxic, single point]"}
{"smiles": "COc1cc2c(cc1OC)C(c1ccc(-c3cc(Cl)ccc3Cl)o1)=NCC2", "Potency": "inconclusive: 23.1 µM [cytotoxic, single point]"}
{"smiles": "CCn1nc(NC(=O)c2ccncc2)c2cc3ccc(C)cc3nc21", "Potency": "inactive"}
{"smiles": "CCC1(C)Cc2c(sc3nnn(Cc4ccccc4Cl)c(=O)c23)CO1", "note": "(stereo not given)", "Potency": "inactive"}
{"smiles": "Cn1c(-c2ccc3c(c2)OCO3)cnc1NCc1ccccc1", "Potency": "inconclusive: 29.1 µM [cytotoxic, single point]"}
{"smiles": "Cc1nc2c(c3c1[nH]c1ccccc13)C(O)CC(C)(C)C2", "note": "(stereo not given)", "Potency": "inconclusive: 29.1 µM [cytotoxic, single point]"}
{"smiles": "Cc1ccc(S(=O)(=O)Nc2ccccc2OC(C(=O)OC(C)(C)C)C(=O)OC(C)(C)C)cc1", "Potency": "inactive"}
{"smiles": "CCN(C(=O)CSc1ncc2c(n1)-c1cc(Cl)ccc1N(Cc1ccccc1)S2(=O)=O)c1cccc(C)c1", "Potency": "inactive"}
{"smiles": "Cc1ccc(-c2cc3ncc(C(=O)c4cc(Cl)c(C)cc4O)cn3n2)cc1", "Potency": "inactive"}
{"smiles": "CC(C)N1C/C(=C/c2cccnc2)C(=O)/C(=C/c2cccnc2)C1", "Potency": "inconclusive: 20.6 µM [cytotoxic, single point]"}
{"smiles": "CC1(C)Cc2c(sc3c2c2ncnn2c2nnc(SCC(=O)NCc4ccco4)n32)CO1", "Potency": "inconclusive: 29.1 µM [cytotoxic, single point]"}
{"smiles": "C/C(N)=C(/C#N)C(=O)CSc1nc2ccccc2c(=O)n1-c1ccc(C)c(Cl)c1", "Potency": "inactive"}
{"smiles": "COc1ccc2c(c1)O[C@@H](c1cccc(C(F)(F)F)c1)[C@H](OC(=O)Nc1ccc(OC(F)F)cc1)C2=O", "Potency": "inconclusive: 20.6 µM [cytotoxic, partial curve, poor fit]"}
{"smiles": "CC(C)=CCC[C@H](C)C[C@@H]1Cc2[nH]c(=S)[nH]c(=O)c2[C@@H](c2ccc(F)cc2)O1", "Potency": "inconclusive: 29.1 µM [cytotoxic, single point]"}
{"smiles": "CCC(=O)N1CCc2cc(Br)cc(S(=O)(=O)N3CCCC(C(=O)Nc4cc(C)ccc4OC)C3)c21", "note": "(stereo not given)", "Potency": "inactive"}
{"smiles": "CC(C)(CO)NCc1cccs1", "activity change, negative = cytotoxic": "inconclusive: 5.97%"}
{"smiles": "O=C1CN(C(=O)c2cc(F)cc(F)c2)c2ccccc2N1", "Potency": "inconclusive: 29.1 µM [cytotoxic, single point]"}
{"smiles": "Cc1ccc(-c2nnc(NCc3nc4ccccc4[nH]3)c3ccccc23)cc1S(=O)(=O)N(C)C", "Potency": "inactive"}
{"smiles": "Oc1cccc(/C=N/N=C/c2cccc(O)c2O)c1O", "Potency": "inconclusive: 13 µM [cytotoxic, partial curve]"}
{"smiles": "Cc1ccn(CCC(=O)NC2CCCc3c2cnn3-c2cccc(C)c2C)n1", "note": "(stereo not given)", "Potency": "inconclusive: 20.6 µM [cytotoxic, single point]"}
{"smiles": "O=C(CNC(=O)c1ccccc1Br)N/N=C/c1cc(Br)ccc1O", "Potency": "inactive"}
{"smiles": "COc1ccc(-c2ccc(CN3C(C(C)C)C(=O)N(Cc4cn(CC5CCCCC5)nn4)CCS3(=O)=O)cc2)cc1OC", "note": "(stereo not given)", "Potency": "inactive"}
{"smiles": "CN(C)CCCn1c(SCC(=O)Nc2nccs2)nnc1-c1ccncc1", "Potency": "inconclusive: 25.9 µM [cytotoxic, single point]"}
{"smiles": "Cc1ccc(C)c(C(O)c2ncc(-c3cccc(C(F)(F)F)c3)[nH]2)c1", "note": "(stereo not given)", "Potency": "inactive"}
{"smiles": "CC[C@]12c3[nH]c4cc(-c5ccco5)ccc4c3CCN1C(=O)[C@@H](CC(=O)NCC13CC4CC(CC(C4)C1)C3)C[C@@H]2C(=O)N1CCN(C(=O)C2CC2)CC1", "Potency": "inconclusive: 10.3 µM [cytotoxic, partial curve, poor fit]"}
{"smiles": "O=C(COC(=O)c1c2c(nc3ccccc13)/C(=C/c1cccc([N+](=O)[O-])c1)CCC2)NC1CCS(=O)(=O)C1", "note": "(stereo not given)", "Potency": "inconclusive: 29.1 µM [cytotoxic, single point]"}
{"smiles": "Cc1c(C(=O)N2CCOCC2)sc2nc(-c3ccccc3)cn12", "Potency": "inactive"}
{"smiles": "Cc1sc(NC(=O)/C=C/c2ccc3c(c2)OCO3)nc1-c1ccccc1", "Potency": "active: 1.3 µM"}
{"smiles": "CCCc1ccc(S(=O)(=O)N2CCC(c3nnc(-c4cccc(C)c4)o3)CC2)cc1", "Potency": "inconclusive: 29.1 µM [cytotoxic, single point]"}
{"smiles": "CN(CC1CCCO1)S(=O)(=O)c1ccc(C(=O)Nc2nc(-c3ccccn3)cs2)cc1", "note": "(stereo not given)", "Potency": "active: 4.11 µM"}
{"smiles": "Clc1cccc(Cl)c1/C=C/c1ccn[nH]1", "Potency": "inconclusive: 29.1 µM [cytotoxic, single point]"}
{"smiles": "CC(=O)NCCn1c(SCc2ccc(C)cc2C)nc2ccccc2c1=O", "Potency": "inconclusive: 16.4 µM [cytotoxic, single point]"}
{"smiles": "O=C(CSC1=Nc2ccccc2C2CC=NN12)Nc1ccc(F)cc1Cl", "note": "(stereo not given)", "Potency": "inactive"}
{"smiles": "CCc1ccc2[nH]c(=O)c(CN(CCN(CC)CC)C(=S)NCc3ccco3)cc2c1", "Potency": "active: 23.1 µM"}
{"smiles": "CN=c1scc(-c2ccco2)n1/N=C/c1ccc(O)c(O)c1", "Potency": "inconclusive: 16.4 µM [cytotoxic, single point]"}
{"smiles": "O=C(COC(=O)CNS(=O)(=O)c1c(F)cccc1F)NC(=O)NC1CCCCC1", "activity change, negative = cytotoxic": "inconclusive: 35.4%"}
{"smiles": "O=C(c1cc(-c2ccc(F)cc2)on1)N1CCCC1", "Potency": "inactive"}
{"smiles": "CSc1ccccc1NC(=O)Nc1cccc(Cl)c1Cl", "Potency": "inactive"}
{"smiles": "O=C(O/N=C\\c1ccc(N2CCCCC2)c([N+](=O)[O-])c1)c1cccc(Cl)c1", "Potency": "inconclusive: 20.6 µM [cytotoxic, single point]"}
